The values that follow come from patent US20250051442A1 (UNIVERSITY OF TSUKUBA, published 2025).

Substitutions are numbered along the chain they refer to. No constants are given. Whether binding was seen depends on the method and setting. Some binding calls cover weakened binding; strength is not graded here.

The target in the test is T1, human DNAM-1 (human, UniProt Q15762 19-336).
T1 construct: whole, on cells; also called hDNAM-1; CD226
T1 sequence (looked up): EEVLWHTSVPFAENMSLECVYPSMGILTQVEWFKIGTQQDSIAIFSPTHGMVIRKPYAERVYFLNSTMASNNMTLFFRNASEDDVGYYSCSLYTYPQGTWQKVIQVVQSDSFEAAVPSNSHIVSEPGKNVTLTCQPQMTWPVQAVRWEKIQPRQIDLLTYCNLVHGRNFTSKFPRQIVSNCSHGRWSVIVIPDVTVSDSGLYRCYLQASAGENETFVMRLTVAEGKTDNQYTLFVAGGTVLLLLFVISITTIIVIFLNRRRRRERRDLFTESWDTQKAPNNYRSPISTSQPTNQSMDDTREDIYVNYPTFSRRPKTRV
In words: flow cytometry on hDNAM-1/BW cells, antibody from HEK293 transfectants.

B1: humanized anti-DNAM-1 antibody hAKB1-C (antibody, V domains shown)
VH: QVQLQESGPGLVKPSETLSLTCTVSGYSITSGYYWNWIRQPPGKGLEWMGYISYDGSNNYNPSLKNRVTISRDTSKNQFSLKLSSVTAADTAVYYCARAYYGNYVGYFDVWGQGTTVTVSS
VL: DIQMTQSPSSLSASVGDRVTITCKASQSVSNDVAWYQQKPGKAPKLLIYYASNRYTGVPSRFSGSGSGTDFTFTISSLQPEDIATYYCQQDYSSPLTFGGGTKVEIKR
Turning to B1, the binding entry was “binds”.

B2: humanized anti-DNAM-1 antibody hAKB1-D (antibody, V domains shown)
VH: B1 VH with T30S
VL: B1 VL
As for B2, the binding result was “binds”.
